For the assay, the target named is Halo-SIRT7 (UniProt Q8BKJ9). Kind of assay: pull-down; Halo-SIRT7 immobilised on HaloLink Resin, incubated with lysates of transfected HEK293T cells in pull-down buffer (10 mM Tris-HCl pH 7.4, 150 mM NaCl, 0.5% NP-40, 10 mM nicotinamide, 1 uM TSA) at 4 °C overnight; five washes; western blotting; only the target purified. A general note: Immunoblotting shows a protein as a band on a membrane.

Protein sequences, listed by entry. Tags and fused reporters are not part of them.
UniProt Q8BKJ9: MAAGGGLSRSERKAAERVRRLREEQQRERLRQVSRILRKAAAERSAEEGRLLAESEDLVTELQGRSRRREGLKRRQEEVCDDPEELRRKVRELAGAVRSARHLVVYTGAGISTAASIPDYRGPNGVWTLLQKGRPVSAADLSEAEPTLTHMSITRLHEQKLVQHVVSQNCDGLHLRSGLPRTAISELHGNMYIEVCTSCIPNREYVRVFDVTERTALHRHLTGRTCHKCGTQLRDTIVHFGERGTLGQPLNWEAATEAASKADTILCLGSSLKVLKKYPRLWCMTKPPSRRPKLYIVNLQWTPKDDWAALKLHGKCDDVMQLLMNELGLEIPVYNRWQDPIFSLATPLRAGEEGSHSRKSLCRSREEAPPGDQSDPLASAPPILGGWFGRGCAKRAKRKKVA

These results are taken from PMC9744749.

These are yes or no findings as the source states them, for the method shown. In cells and extracts the contact can be indirect. Some results given as binding are weak or reduced against the parent protein; the word gives no strength.

B1: GAL4DBD-IMP2 fragment C1A [381–481] (domain or fragment, UniProt Q5SF07 381-481)
chain: RGVPPSPPYHPFATHSGYFSSLYPHHHFGPFPHHHSYPEQETVSLFIPTQAVGAIIGKKGAHIKQLARFAGASIKIAPAEGPDVSERMVIITGPPEAQFKA
On to B1, for which the binding entry is given as “binds”.

B2: GAL4DBD-IMP2 fragment C [381–592] (domain or fragment, UniProt Q5SF07 381-592)
chain: RGVPPSPPYHPFATHSGYFSSLYPHHHFGPFPHHHSYPEQETVSLFIPTQAVGAIIGKKGAHIKQLARFAGASIKIAPAEGPDVSERMVIITGPPEAQFKAQGRIFGKLKEENFFNPKEEVKLEAHIRVPSSTAGRVIGKGGKTVNELQNLTSAEVIVPRDQTPDENEEVIVRIIGHFFASQTAQRKIREIVQQVKQQEQRYPQGVAPQRSK
On to B2, for which the binding entry is “binds”.
